Test results published in the supplement of paper PMC12578635.
Some of the results follow. Cut-off read from the data, not from the text of the source: active = 150% or more and inactive = the rest. Many values rest on one well or one pass, so single values are uncertain.

test system: Staphylococcus aureus JE2-lux inside RAW 264.7 macrophages; test: intracellular bacterial bioluminescence relative to DMSO vehicle; higher = higher intracellular bacterial metabolic activity; settings: 10 µM; treatment time 4 h; gentamicin 50 µg/ml

Intracellular bacterial bioluminescence, inactive:
O=C(c1c(-c2ccccc2)nnc2ccccc12)N1CC=C(c2ccccc2)CC1 70.7%
O=C(CSc1nc2ccccc2o1)N1CCc2ccccc21 117%
CCOC(=O)c1ccccc1NC(=O)COc1cc(=O)n(-c2ccccc2Cl)nc1C(=O)OCC 61.1%
Cc1nc(OCC(=O)NCc2cccnc2)c2c(C)c(C)oc2n1 122%
CCN(CC)c1nc(N2CCOCC2)c2cnn(C)c2n1 95.4%
O=S(=O)(c1ccc(-c2noc(-c3cc4cc(Cl)ccc4[nH]3)n2)cc1)N1CCCC1 91%
O=C(NCCc1ccc(Cl)cc1)C(=O)Nc1ccc(F)c(F)c1 83.7%
COc1cc(NC(=O)c2nn(C)c(C(F)(F)F)c2Cl)cc(OC)c1 105%
O=C1Cc2cc(NC(=O)c3ccccc3Br)ccc2N1 116%
CCC(SC1=Nc2ccccc2C2=NC(C(C)C)C(=O)N12)C(=O)Nc1ccc(OC)cc1OC (stereo not given) 114%
NC(=O)CSc1ncnc2c1oc1ccccc12 117%
Cc1ccc(Cl)cc1NC(=O)C(C)Sc1nc2ncccc2o1 (stereo not given) 100%
Cc1oc(-c2ccno2)cc1S(=O)(=O)Nc1ccc2c(c1)OCO2 79.2%
CC1(C)CC(=O)C2=C(C1)Nc1[nH]c(=O)[nH]c(=O)c1C2c1ccc(-c2cccc(C(F)(F)F)c2)o1 (stereo not given) 99.5%
COc1cc2cc3c(N)c(C(=O)N4c5ccccc5CC4C)sc3nc2cc1OC (stereo not given) 49.9%
COCCn1c2ccccc2n2c(=O)n(CC(=O)NC3CCCC3)nc12 123%
CC1(C)CC(=O)C2=C(C1)Nc1nc(SCc3ccccc3F)[nH]c(=O)c1C2c1ccccn1 (stereo not given) 90.2%
COc1ccc2c(O)c(C(=O)NCCc3ccccc3)cnc2c1 91.7%
CC(Oc1ccccc1)C(=O)N1CCN=C1SCc1cccnc1 (stereo not given) 91.2%
Cc1cccc(-c2nc(N)n(C(=O)c3ccco3)n2)c1 129%
Cc1cccc(NC(=O)CSc2nc3c(c(-c4ccco4)c2C#N)CCCC3)c1 143%
CCOc1ccc(N2CC(NC(=O)Nc3ncccc3C)CC2=O)cc1 (stereo not given) 94%
COc1ccc2ncc(C(=O)NC3CCCC3)c(O)c2c1 100%
Cc1cc(Br)ccc1NS(=O)(=O)c1c[nH]c(=O)[nH]c1=O 112%
CC(=O)c1ccc(C(=O)N(Cc2ccncc2)c2nc3c(C)ccc(Cl)c3s2)cc1 96.7%
Cc1ccc(C)c(NC(=O)CS(=O)(=O)c2cn(C)c3ccccc23)c1 87.4%
O=C(COc1ncnc2ccccc12)Nc1cccc(-c2csnn2)c1 4.53%
CC(CNC(=O)Cn1c(-c2cccs2)cc2cccnc21)n1cncn1 (stereo not given) 78%
N#CC1=C(S)N(c2ccc(F)cc2)C(c2ccco2)NC1=O (stereo not given) 96.7%
Cc1ccc2cc(CCNC(=O)C3CC3)c(=O)[nH]c2c1C 83.7%
O=c1[nH]c2ccccc2n1CCCSc1cccc2cccnc12 11.4%
Cc1ccccc1NC(=O)NC1CC2CCC(C1)N2Cc1ccccc1 (stereo not given) 73%
Brc1ccc2[nH]c3nc(SCc4nc5ccccc5[nH]4)nnc3c2c1 65.9%
Cc1ccc(C2C(C#N)=C(SCC(=O)N3c4ccccc4CC3C)NC3=C2C(=O)CCC3)o1 (stereo not given) 37%
COC(=O)c1ccc2c(c1)C1CC(C)(O2)N(c2ccc(OC)c(OC)c2)C(=O)N1 (stereo not given) 79.2%
COc1ccc(OC)c(NS(=O)(=O)c2ccc3[nH]c(=O)[nH]c3c2)c1 112%
CCN1CCN(c2nc(N3CCN(C(=O)c4ccco4)CC3)nc3c2cnn3C)CC1 130%
Cc1ccc(C(=O)Nc2ccccc2-c2nc3ccccc3[nH]c2=O)cc1[N+](=O)[O-] 60.2%
COc1ccc(OC)c2[nH]c(=O)c(CCNC(=O)c3ccc(Cl)c([N+](=O)[O-])c3)cc12 97%
CCOC(=O)CCc1c(C)c(C#N)c2nc3ccccc3n2c1-n1cnc2ccccc21 101%
O=C(NC1CCN(Cc2ccccc2)CC1)c1cnc(N2CCOCC2)c2ccccc12 118%
CCOc1ccc2c(c1)cc(C1OCCO1)c1nn(C)c(=O)n12 95%
CCOc1ccc2ncc(C(=O)NCc3ccc(F)cc3)c(O)c2c1 59.6%
COCCCNc1c2c3c(cccc3[nH]c1=O)C(=O)c1ccccc1-2 97.2%
CC(=O)Nc1ccc(NC(=O)c2cnc3c(c(C)nn3-c3ccccc3)c2Cl)cc1 122%

As a working copy, two of the compounds above:
Intracellular bacterial bioluminescence, inactive:
CCN(CC)c1nc(N2CCOCC2)c2cnn(C)c2n1 95.4%
O=S(=O)(c1ccc(-c2noc(-c3cc4cc(Cl)ccc4[nH]3)n2)cc1)N1CCCC1 91%
